Screen size: about 52,000 sequences; about 210 (0.4%) were called active.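 How the source made its calls: active means gene whose silencing raises cell survival under the drug, median off-target-corrected z-score across its silencing RNAs 2 or more; inactive means the rest.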 The list shows a part of the results.

The nature of this test: Resistance to Poly (ADP-Ribose) Polymerase inhibitor: Gene Identification via Genome-wide siRNA Screen. The following applies: mouse BRCA2 R2336H ES cells, olaparib, CellTiter-Glo viability; stronger effect = higher value. In outline: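 Genome-wide siRNA screen (3 siRNAs/gene, 20 nM) in mouse ES cells carrying hypomorphic BRCA2 R2336H; olaparib 500 nM added 48 h post-transfection, CellTiter-Glo viability 72 h later. Normalized to plate-median negative control; MAD z-scores, gene median, seed-adjusted.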
(In general: In ATP-based viability assays light output follows the ATP content of the culture.)
GGAACAUCUUCACUUAGUATT against Kcna6: the z-score is inactive: -0.698.

Consider CCAUUUUCUCAGUGAUCAATT against Taar7a, for which the z-score is inactive: -0.516.

GGAUUACCUGGAGAAGUACTT against Pga5: the z-score is inactive: -0.871.

For GGACAUGGCACAUCAAGUCTT against Rpusd4, the z-score was inactive: 0.486.

Consider GGCCAUGAUUGUGUUUCAGTT against Tm4sf3, for which the z-score is inactive: 2.8.

For “GGAAUGACGUGGUGUAUCATT against 4633402D15Rik”, the z-score is inactive: -0.773.

In the case of “GGUGUUGAACAAGUGCGACTT against 1700008P20Rik”, the z-score is inactive: 0.944.

Take “CCUACGGGAAACGAAAGCUTT against A730085E03Rik”: the z-score was inactive: 1.1.

Turning to GGUUGUCGGAACCAACCCATT against Lrp5, the z-score is inactive: -0.0172.

For GGGAUUCUGGAAAUCUUUGTT against Esr2, the z-score is inactive: 0.365.

For the sequence CCUUUUUGACAUUGUGAUUTT against Nt5c2l1, the z-score is inactive: 0.4.

As to GGGAGUGAUGUUCUUAUUGTT against Slc35f2, the z-score is inactive: 0.111.

On to GGAAAUCCGAUAAACCACUTT against Grik1, for which the z-score was inactive: -0.7.

Regarding GGACAAUCUGAUUCAAGUATT against Ms4a2, the z-score is inactive: 2.46.

Regarding GGACUGCAUGAGAUUUCCCTT against Rhoc, the z-score was inactive: 0.687.

GGUUGAACUCUUCUGGGAUTT against Gm191: the z-score was inactive: 1.5.

As to GGACACAGAAUGUUCUUGGTT against Rps3, the z-score was inactive: -3.09.

Take GGAGGAGUCCCAUAACUCATT against Nurit: the z-score is inactive: 0.0134.

In the case of GGACAGAAAGCAAAGGCACTT against Gpr24, the z-score was inactive: -0.211.

For the sequence GGAAGAAAACAAUCAGAUGTT against Cd209a, the z-score was inactive: 0.147.

Regarding “GGGUCUAUUUUAAACCCUUTT against 2610019P18Rik”, the z-score is inactive: 0.8.

As for GGUAGUUCAGAGACACGGGTT against Otos, the z-score is inactive: -1.21.

For the sequence CCUGGAACUUUUCCCUUAUTT against Olfr232, the z-score was inactive: -1.25.

Regarding “GGAACAAGAGAUUGAGCAUTT against 2610529H08Rik”, the z-score is inactive: 2.62.

Consider CGCGCUUUUUAGCAAAUAUTT against Hoxa7, for which the z-score is inactive: -0.859.

As for “CCAGUCGUGUUACAAUGUUTT against 4933439F11Rik”, the z-score is inactive: -0.776.

Regarding “CCUCAGAUUUCAACCAUAGTT against 2700087I09Rik”, the z-score was inactive: 1.64.

For “GCCAACUUUGCCAUUAAAATT against 1110061N23Rik”, the z-score is inactive: 0.25.

Consider GCAUCAGUAUGAGAUUAGGTT against Ccne2, for which the z-score was inactive: 0.24.

Take GCAAUAGAUCUGGUCCUUUTT against Olfr552: the z-score is inactive: -1.07.

Consider GGUCAAUAUUCUUAUGUCCTT against Edg3, for which the z-score was inactive: 1.41.

On to GCUCUUGAGCCUACAACUGTT against Pmfbp1, for which the z-score is inactive: -0.55.

Turning to “GGUCAUGGAAGAAGCAAAGTT against 5730555F13Rik”, the z-score was inactive: 2.7.

For the sequence “GGUUUGAUGACAAAUACACTT against 5730406I15Rik”, the z-score is inactive: 0.884.

Consider “GGUCAAUGCUACUAAUGAATT against 4921520G13Rik”, for which the z-score is inactive: -0.197.

In the case of “GGCUAAAAACUACCUCCUGTT against D930050H05Rik”, the z-score was inactive: 1.23.

For the sequence GGCAAAGUGAUAUUUUCAATT against Slc6a12, the z-score is active: 1.85.

Consider GGUAAAUGCAGAGGGAACATT against Ak5, for which the z-score is inactive: -0.291.

Turning to GCCCUGGCCACAUGUAGUUTT against Olfr98, the z-score was inactive: 0.371.

As to GGAUGUUUUCCAGUAUGAATT against Nox1, the z-score is inactive: 0.482.

On to GUAGUUAGGAACUCUUGCUTT against BC051244, for which the z-score is inactive: -0.535.

Consider GGAAGGUUGUCUUACUUUUTT against Pkd2, for which the z-score was inactive: -0.438.

Take GGAGUUACGGGAUUCCGUUTT against Kras2: the z-score was inactive: -0.0682.

As to “GAAGUCUGUGACCAGUUCCTT against A930011G24”, the z-score was inactive: 0.445.

For the sequence “GGAAGCAGUACCUUCAUCGTT against 0610009K11Rik”, the z-score was inactive: 0.203.

Turning to GCGAACUGAUCAUCAACCGTT against Zfp566, the z-score was inactive: 1.37.

On to CCAAGUUCUUUAGUUAAAGTT against Fshb, for which the z-score is inactive: -0.478.

In the case of GCUCGAUUGACCUCAUUCATT against Rhbdl6, the z-score is inactive: -2.57.

For CGGAAGUUCCUCAUUGCAUTT against Ftcd, the z-score was inactive: -0.611.

Turning to GGCAGUGAGAACCAAGUUUTT against Ccl24, the z-score was inactive: -1.87.

In the case of GGCUUUGGAAUCAUUCAUATT against BC028265, the z-score was inactive: -0.949.

Turning to GCUGGUGAGUCACUGAUGATT against Surf5, the z-score was inactive: 0.855.

As for GCUAUAUGGUUGAAGAUUUTT against Ptprj, the z-score was inactive: 1.86.

Turning to CCUAAAAUACCUUUGUGAGTT against Nfkbie, the z-score was inactive: -0.908.

Regarding GAUGGACAGAAAUCAGGAGTT against Centd2, the z-score was inactive: -1.52.

On to “CGAGCAAUGGCAGAUGAGCTT against D17Wsu104e”, for which the z-score is inactive: 0.906.

In the case of “GCAAAAUCUAGGGAUAAGATT against A630098A13Rik”, the z-score is inactive: -1.29.

Consider “CCAAGGACUCUCAUCUGUUTT against 4933409D10Rik”, for which the z-score is inactive: 0.0662.

For the sequence GCUUCAACAUCAGUUUGGGTT against Olfr1392, the z-score was inactive: 0.413.

On to GGUGUUUGCCAUGUUCGCATT against Avpr1a, for which the z-score was inactive: 0.789.

For the sequence GGAGAAGCUGUUUGUUCUGTT against Ftcd, the z-score was inactive: 0.513.

In the case of CCUUUAUAACUGUGGUUGGTT against LOC432736, the z-score is inactive: -0.0187.

For GUCUCAAAUUUAUCCUGAUTT against Mapbpip, the z-score was inactive: -0.686.

With “GGUUAAAACGAGCAACGUGTT against 2310079F23Rik”, the z-score is inactive: 1.1.

Consider “CCUUUUUGAGGAAUUUGGATT against A630086M08Rik”, for which the z-score was inactive: -0.414.

As for GGAUAAAGUCUUCAGGUGGTT against Olfr1499, the z-score is inactive: -0.168.

On to GCUUGUGCGGGUGAUAGACTT against BC027073, for which the z-score is inactive: -1.7.

On to GGCGGACUGUUACUUCACCTT against H2-Ob, for which the z-score was inactive: 0.179.

Take CCAACUCCUCUCUGGUUACTT against Olfr95: the z-score is inactive: 2.53.

For the sequence GGUUUUUUGAUGUGGAUUGTT against Cyp4f14, the z-score is inactive: -0.255.

As to GGAUGUGCAAUAAUUUUCUTT against Fzd4, the z-score is inactive: 0.998.

Regarding GUAUCAUGACAGCUGUUUUTT against Olfr519, the z-score is inactive: 1.32.

For the sequence GCUUCAAGUCAACUUAGUCTT against Hal, the z-score is inactive: 1.73.

For the sequence “GCUUUGAGACUAGAUGUGGTT against A130066N16Rik”, the z-score was inactive: 0.871.

Turning to GGGACAAGUCAAAAACGAGTT against Cdc23, the z-score was inactive: -1.99.

Take “CGCAUCAUAUUCUGAUUCCTT against 0610039K22Rik”: the z-score is inactive: 0.501.

Take GGGUGAGGAAUAUUAAUUCTT against Tuba6: the z-score is inactive: 0.54.

Turning to CAAUAGGACUCAUCCUGGUTT against Olfr670, the z-score was inactive: -0.829.

With GGACCAGAAACAAAUUAAGTT against Neurod6, the z-score was inactive: 1.15.

CCAUUGGAUCCAUUCCUAUTT against Plcd3: the z-score is inactive: 2.27.

On to AUAGAGAAUACAACACUACTT against Olfr196, for which the z-score is inactive: -0.399.

Turning to GGCUUUGAGUAAACUGUUCTT against Olfr1014, the z-score was inactive: -0.334.

On to “GCAGACAUGAACCGACUCATT against 2310003C23Rik”, for which the z-score was inactive: -0.281.

Consider GGGAAGAUGAGAUUGAAGCTT against Pcdh21, for which the z-score was inactive: -1.04.

With GGAGUGUGUAUGGAAAAUATT against Tll1, the z-score was inactive: -1.39.

Consider GGUCAGAUUCCUGAAAUUATT against Vbp1, for which the z-score was inactive: -0.208.

For GGAUGAUAUUCUCAAGUUCTT against MGC117568, the z-score was inactive: 1.06.

As for GGGAAAGAGUACUAAGAAUTT against Olfr678, the z-score is inactive: 0.505.

For the sequence “GCUAGUCUACCCAAGUGACTT against 1700027J05Rik”, the z-score was inactive: -0.142.

Turning to GGAGUCCUCUAAUGUAAAUTT against Elovl4, the z-score is inactive: 0.0372.

For “GCAUAACAGAGUCAAUACATT against 2810013E07Rik”, the z-score was inactive: -0.0688.

Take GGAGGUGUGGCAUCUGGAUTT against Gsn: the z-score is inactive: 0.655.

As for GGAUGCUGAUUUAAAGACUTT against Rai14, the z-score was inactive: -1.07.

In the case of GGGAUAUUCAGCAAACAUUTT against Xpo5, the z-score is inactive: 1.33.

As for GCUACAGAUUAGGGACAUATT against Pcdhb2, the z-score was inactive: 0.35.

Regarding CCAUCUCUUCGACAAUUAUTT against Chrne, the z-score was inactive: -1.18.

Take “GGGUGAUGUUCUUCCUGGATT against 2310032D16Rik”: the z-score is inactive: 0.0239.

As for GCCAACUUUGGACCAUUAUTT against BC087945, the z-score was inactive: -0.503.

On to CCAAAUUUAGCCAGGAUUATT against Ogn, for which the z-score was inactive: 2.76.

Consider GCAGACAUUGCACAAACCCTT against Ankrd10, for which the z-score was inactive: -2.03.

Regarding GCGCAUCGAAAAAUGGAUUTT against Rgl3, the z-score was inactive: -0.211.

For CCACUUCCACCAAUGUAUATT against Igsf9, the z-score was inactive: 0.0784.

As to CCACAAGCUCUUUGUUUGCTT against Habp2, the z-score was inactive: 1.3.

As for CGAAACUCGUGAAUGAAAATT against Gtse1, the z-score is inactive: 0.538.

The values are drawn from PubChem BioAssay AID1347423 (Functional Genomics Laboratory (NCATS/FGL), 2020).
